Experiment [1] concerns the target Flag-tagged CNOT9 WT (human) (UniProt Q92600). As to the kind of experiment: co-IP; FLAG-tagged bait expressed in HEK293T cells, TNE lysis buffer (1% NP-40, 50 mM Tris/HCl pH 7.5, 150 mM NaCl, 1 mM EDTA), anti-FLAG antibody 1 h and Protein G Sepharose 2 h at 4 °C, endogenous partners by immunoblotting; the paper calls it a pull-down assay.
The target of experiment [2] is FLAG-CNOT1 (1318–1589) (human) (UniProt A5YKK6). Described as above.
The target in experiment [3] is FLAG-CNOT1 (1473–1537) (human) (UniProt A5YKK6). The description is as above.
For experiment [4], the target named is CNOT3 (human (endogenous in HeLa)) (UniProt O75175). Description: co-IP; immunoprecipitation with anti-CNOT3 antibody from WT or CNOT9 KO HeLa cells, western blotting. For orientation: Immunoblotting shows a protein as a band on a membrane.
Experiment [5] deals with CNOT2 (human (endogenous in HEK293T)) (UniProt Q9NZN8). Description: co-IP; immunoprecipitation with anti-CNOT2 and CNOT3 antibodies from HEK293T cells, western blotting.
Experiment [6] concerns the target CNOT3 (human (endogenous in HEK293T)) (UniProt O75175). Described as above.

The chains behind the UniProt entries cited, without tags or fusion partners.
UniProt Q9UFF9: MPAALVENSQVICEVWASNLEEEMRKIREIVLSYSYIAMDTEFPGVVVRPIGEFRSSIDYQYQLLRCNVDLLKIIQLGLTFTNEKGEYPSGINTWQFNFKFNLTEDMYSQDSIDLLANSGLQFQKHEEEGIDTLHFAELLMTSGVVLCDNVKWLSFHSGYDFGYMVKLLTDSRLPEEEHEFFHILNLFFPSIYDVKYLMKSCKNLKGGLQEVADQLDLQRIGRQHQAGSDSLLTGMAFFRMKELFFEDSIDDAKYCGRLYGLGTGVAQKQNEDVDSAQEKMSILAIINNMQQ

For six molecules, binding results are on record in paper PMC12582992.

These are yes or no findings as the source states them, for the method shown. Binding seen in cells or lysates may run through a third protein. Some binding calls cover weakened binding; strength is not graded here.

Consider CNOT1 (from UniProt A5YKK6 1-2376), for which, in experiment [1], the binding result was “binds”.
On to CNOT3 (from UniProt O75175 1-753), for which the binding entry in experiment [2] is on record as “no binding”.
The same measure, in the same setting: to CNOT8 (from UniProt Q9UFF9 1-292) belongs “no binding”.
For the molecule CNOT9 (from UniProt Q92600 1-299), the binding entry in experiment [3] was “no binding”; in experiment [2] it was “binds”.

B1: RNF219 (protein, UniProt Q5W0B1 1-726)
chain: MAQTVQNVTLSLTLPITCHICLGKVRQPVICINNHVFCSICIDLWLKNNSQCPACRVPITPENPCKEIIGGTSESEPMLSHTVRKHLRKTRLELLHKEYEDEIDCLQKEVEELKSKNLSLESQIKTILDPLTLVQGNQNEDKHLVTDNPSKINPETVAEWKKKLRTANEIYEKVKDDVDKLKEANKKLKLENGGLVRENLRLKAEVDNRSPQKFGRFAVAALQSKVEQYERETNRLKKALERSDKYIEELESQVAQLKNSSEEKEAMNSICQTALSADGKGSKGSEEDVVSKNQGDSARKQPGSSTSSSSHLAKPSSSRLCDTSSARQESTSKADLNCSKNKDLYQEQVEVMLDVTDTSMDTYLEREWGNKPSDCVPYKDEELYDLPAPCTPLSLSCLQLSTPENRESSVVQAGGSKKHSNHLRKLVFDDFCDSSNVSNKDSSEDDISRSENEKKSECFSSPKTGFWDCCSTSYAQNLDFESSEGNTIANSVGEISSKLSEKSGLCLSKRLNSIRSFEMNRTRTSSEASMDAAYLDKISELDSMMSESDNSKSPCNNGFKSLDLDGLSKSSQGSEFLEEPDKLEEKTELNLSKGSLTNDQLENGSEWKPTSFFLLSPSDQEMNEDFSLHSSSCPVTNEIKPPSCLFQTEFSQGILLSSSHRLFEDQRFGSSLFKMSSEMHSLHNHLQSPWSTSFVPEKRNKNVNQSTKRKIQSSLSSASPSKATKS
As to B1, the binding result in experiment [4] is recorded as “binds”.

B2: RNF219, ring finger protein 219 (protein, UniProt Q5W0B1 1-726)
chain: B1 chain
As to B2, the binding entry in experiment [5] and in experiment [6] was “binds” in each case.
